# Some of the results follow.
# B1: Mnn9-2N3 (Aspergillus fumigatus) (protein)
# chain: MAVARRMRRTNPITLLLAAILAIGFFIFVLSPSTTSASPVKAGSASSSSTSQQRREDNAAENPLSPPTKPFFKSQPVRHDGQQAPPPVVQYNLNQLSSTSTSAANGERILILTPMARFVPEYWDNVVKLTYPHELISIGFIIPKNKEGNAALAALEAAIAKTQSGPIDKRFASISILRQDFEPPLQSQDEKERHKISNQKARRESMSRARNSLLFTTLGPATAWVLWLDADIVETPPTLIQDLTAHDHPVLVPNCYQRYYNSEKKKMDVRPYDYNSWIDSSTAQSMAAEMGPDEILLEGYAEMPTYRTLMAHLADTANPNPKKVIELDGVGGTALMVKAEVHRDGAMFPAFPFYHLVETEGFAKMAKRLGYSVYGLPDYFVSRNFFFFFFFFFFG
# Key:
# Assay in all cases: glycan array binding signal (z-score within array); higher = stronger binding
# Conditions in all cases: glycan notation: IUPAC condensed, linker removed
# [1] = biological target: Gal(b1-4)GlcNAc(b1-6)GalNAc
# Procedure, shortened: (§1)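 The Consortium for Functional Glycomics database supplied 3228 glycan arrays, of which those lacking an available protein sequence were dropped. The binding signal, a within-array Z-score, was averaged across arrays of the same protein sequence and across linkers. Negative scores can be read as non-binding.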
# [2] = biological target: Gal(b1-4)GlcNAc(b1-6)[Gal(b1-3)]GalNAc
# Procedure, shortened: as §1
# [3] = biological target: Gal(b1-4)GlcNAc(b1-6)[Gal(b1-4)GlcNAc(b1-3)]GalNAc
# Procedure, shortened: as §1
# Gal(b1-4)GlcNAc6P = biological target: Gal(b1-4)GlcNAc6P
# Procedure, shortened: as §1
# Gal(b1-6)Gal = biological target: Gal(b1-6)Gal
# Procedure, shortened: as §1
# Gal3S(b1-3)GalNAc = biological target: Gal3S(b1-3)GalNAc
# Procedure, shortened: as §1
# Gal3S(b1-3)GlcNAc = biological target: Gal3S(b1-3)GlcNAc
# Procedure, shortened: as §1
# [4] = biological target: Gal3S(b1-3)[Fuc(a1-4)]GlcNAc
# Procedure, shortened: as §1
# Gal3S(b1-4)Glc = biological target: Gal3S(b1-4)Glc
# Procedure, shortened: as §1
# Gal3S(b1-4)Glc6S = biological target: Gal3S(b1-4)Glc6S
# Procedure, shortened: as §1
# Gal3S(b1-4)GlcNAc = biological target: Gal3S(b1-4)GlcNAc
# Procedure, shortened: as §1
# [5] = biological target: Gal3S(b1-4)[Fuc(a1-3)]Glc6S
# Procedure, shortened: as §1
# [6] = biological target: Gal3S(b1-4)[Fuc(a1-3)]GlcNAc
# Procedure, shortened: as §1
# [7] = biological target: Gal3S(b1-4)[Fuc(a1-3)]GlcNAc6S
# Procedure, shortened: as §1
# Gal3S4S(b1-4)GlcNAc = biological target: Gal3S4S(b1-4)GlcNAc
# Procedure, shortened: as §1
# Gal3S6S(b1-4)GlcNAc = biological target: Gal3S6S(b1-4)GlcNAc
# Procedure, shortened: as §1
# Gal3S6S(b1-4)GlcNAc6S = biological target: Gal3S6S(b1-4)GlcNAc6S
# Procedure, shortened: as §1
# Gal4S(b1-4)GlcNAc = biological target: Gal4S(b1-4)GlcNAc
# Procedure, shortened: as §1
# Gal4S6S(b1-4)GlcNAc = biological target: Gal4S6S(b1-4)GlcNAc
# Procedure, shortened: as §1
# Gal6P(b1-4)GlcNAc = biological target: Gal6P(b1-4)GlcNAc
# Procedure, shortened: as §1
# Gal6S(b1-3)GlcNAc = biological target: Gal6S(b1-3)GlcNAc
# Procedure, shortened: as §1
# Gal6S(b1-3)GlcNAc6S = biological target: Gal6S(b1-3)GlcNAc6S
# Procedure, shortened: as §1
# Gal6S(b1-4)Glc = biological target: Gal6S(b1-4)Glc
# Procedure, shortened: as §1
# Gal6S(b1-4)Glc6S = biological target: Gal6S(b1-4)Glc6S
# Procedure, shortened: as §1
# Gal6S(b1-4)GlcNAc = biological target: Gal6S(b1-4)GlcNAc
# Procedure, shortened: as §1
# Gal6S(b1-4)GlcNAc6S = biological target: Gal6S(b1-4)GlcNAc6S
# Procedure, shortened: as §1
# GalNAc(a1-3)Gal = biological target: GalNAc(a1-3)Gal
# Procedure, shortened: as §1
# GalNAc(a1-3)GalNAc = biological target: GalNAc(a1-3)GalNAc
# Procedure, shortened: as §1
# [8] = biological target: GalNAc(a1-3)GalNAc(b1-3)Gal(a1-4)Gal(b1-4)Glc
# Procedure, shortened: as §1
# [9] = biological target: GalNAc(a1-3)GalNAc(b1-3)Gal(a1-4)Gal(b1-4)GlcNAc
# Procedure, shortened: as §1
# GalNAc(b1-3)Gal = biological target: GalNAc(b1-3)Gal
# Procedure, shortened: as §1
# [10] = biological target: GalNAc(b1-3)Gal(a1-4)Gal(b1-4)GlcNAc
# Procedure, shortened: as §1
# [11] = biological target: GalNAc(b1-3)Gal(a1-4)Gal(b1-4)GlcNAc(b1-3)Gal(b1-4)Glc
# Procedure, shortened: as §1
# [12] = biological target: GalNAc(b1-3)Gal(a1-6)Gal(b1-4)Glc
# Procedure, shortened: as §1
# GalNAc(b1-3)GalNAc = biological target: GalNAc(b1-3)GalNAc
# Procedure, shortened: as §1
# GalNAc(b1-3)GlcNAc = biological target: GalNAc(b1-3)GlcNAc
# Procedure, shortened: as §1
# GalNAc(b1-4)Gal(b1-4)Glc = biological target: GalNAc(b1-4)Gal(b1-4)Glc
# Procedure, shortened: as §1
# GalNAc(b1-4)GlcNAc = biological target: GalNAc(b1-4)GlcNAc
# Procedure, shortened: as §1
binder,measurement,setting,value
B1,glycan array binding signal (z-score),[1],-2.2
same,glycan array binding signal (z-score),[2],-0.094
same,glycan array binding signal (z-score),[3],-0.485
same,glycan array binding signal (z-score),Gal(b1-4)GlcNAc6P,0.29
same,glycan array binding signal (z-score),Gal(b1-6)Gal,-0.788
same,glycan array binding signal (z-score),Gal3S(b1-3)GalNAc,-0.11
same,glycan array binding signal (z-score),Gal3S(b1-3)GlcNAc,-0.224
same,glycan array binding signal (z-score),[4],0.659
same,glycan array binding signal (z-score),Gal3S(b1-4)Glc,3.44
same,glycan array binding signal (z-score),Gal3S(b1-4)Glc6S,1.42
same,glycan array binding signal (z-score),Gal3S(b1-4)GlcNAc,0.236
same,glycan array binding signal (z-score),[5],-1.27
same,glycan array binding signal (z-score),[6],-1.53
same,glycan array binding signal (z-score),[7],-1.09
same,glycan array binding signal (z-score),Gal3S4S(b1-4)GlcNAc,-0.968
same,glycan array binding signal (z-score),Gal3S6S(b1-4)GlcNAc,-2.67
same,glycan array binding signal (z-score),Gal3S6S(b1-4)GlcNAc6S,-3.05
same,glycan array binding signal (z-score),Gal4S(b1-4)GlcNAc,-0.089
same,glycan array binding signal (z-score),Gal4S6S(b1-4)GlcNAc,-0.381
same,glycan array binding signal (z-score),Gal6P(b1-4)GlcNAc,2.57
same,glycan array binding signal (z-score),Gal6S(b1-3)GlcNAc,-0.363
same,glycan array binding signal (z-score),Gal6S(b1-3)GlcNAc6S,2.52
same,glycan array binding signal (z-score),Gal6S(b1-4)Glc,-0.39
same,glycan array binding signal (z-score),Gal6S(b1-4)Glc6S,-0.727
same,glycan array binding signal (z-score),Gal6S(b1-4)GlcNAc,-0.571
same,glycan array binding signal (z-score),Gal6S(b1-4)GlcNAc6S,-0.866
same,glycan array binding signal (z-score),GalNAc(a1-3)Gal,-0.223
same,glycan array binding signal (z-score),GalNAc(a1-3)GalNAc,-0.042
same,glycan array binding signal (z-score),[8],-0.332
same,glycan array binding signal (z-score),[9],-0.709
same,glycan array binding signal (z-score),GalNAc(b1-3)Gal,-1.8
same,glycan array binding signal (z-score),[10],0.061
same,glycan array binding signal (z-score),[11],-2.29
same,glycan array binding signal (z-score),[12],1.29
same,glycan array binding signal (z-score),GalNAc(b1-3)GalNAc,-1.41
same,glycan array binding signal (z-score),GalNAc(b1-3)GlcNAc,0.09
same,glycan array binding signal (z-score),GalNAc(b1-4)Gal(b1-4)Glc,-0.651
same,glycan array binding signal (z-score),GalNAc(b1-4)GlcNAc,-0.366

# Quoted at random: 3 records from the list, in no set order.
binder,measurement,setting,value
B1,glycan array binding signal (z-score),[9],-0.709
same,glycan array binding signal (z-score),[8],-0.332
same,glycan array binding signal (z-score),Gal(b1-6)Gal,-0.788

# Source: the supplement of paper PMC8728848
